Consider 1 substance from article PMC8192522.

The chains behind the UniProt entries cited, without tags or fusion partners.
UniProt P34931: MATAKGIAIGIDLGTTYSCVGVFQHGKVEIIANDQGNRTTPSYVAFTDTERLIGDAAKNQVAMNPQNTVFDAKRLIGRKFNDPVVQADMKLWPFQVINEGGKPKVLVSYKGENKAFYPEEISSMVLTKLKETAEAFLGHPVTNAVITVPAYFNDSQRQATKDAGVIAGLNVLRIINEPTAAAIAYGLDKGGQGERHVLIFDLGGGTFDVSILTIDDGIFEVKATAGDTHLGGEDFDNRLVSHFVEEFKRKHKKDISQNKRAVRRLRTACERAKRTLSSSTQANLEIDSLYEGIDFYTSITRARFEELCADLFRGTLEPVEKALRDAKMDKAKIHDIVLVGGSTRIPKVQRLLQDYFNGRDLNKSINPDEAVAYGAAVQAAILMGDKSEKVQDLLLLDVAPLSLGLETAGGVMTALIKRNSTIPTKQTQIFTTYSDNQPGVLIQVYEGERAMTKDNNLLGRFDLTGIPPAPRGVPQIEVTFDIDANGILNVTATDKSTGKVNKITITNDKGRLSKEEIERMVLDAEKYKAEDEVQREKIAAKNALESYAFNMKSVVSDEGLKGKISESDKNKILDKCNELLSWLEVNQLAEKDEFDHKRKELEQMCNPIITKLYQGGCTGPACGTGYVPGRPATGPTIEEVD

The assay concerns the target T1, HA-BirA*-FKBP4 (human) (UniProt Q02790).
T1 sequence: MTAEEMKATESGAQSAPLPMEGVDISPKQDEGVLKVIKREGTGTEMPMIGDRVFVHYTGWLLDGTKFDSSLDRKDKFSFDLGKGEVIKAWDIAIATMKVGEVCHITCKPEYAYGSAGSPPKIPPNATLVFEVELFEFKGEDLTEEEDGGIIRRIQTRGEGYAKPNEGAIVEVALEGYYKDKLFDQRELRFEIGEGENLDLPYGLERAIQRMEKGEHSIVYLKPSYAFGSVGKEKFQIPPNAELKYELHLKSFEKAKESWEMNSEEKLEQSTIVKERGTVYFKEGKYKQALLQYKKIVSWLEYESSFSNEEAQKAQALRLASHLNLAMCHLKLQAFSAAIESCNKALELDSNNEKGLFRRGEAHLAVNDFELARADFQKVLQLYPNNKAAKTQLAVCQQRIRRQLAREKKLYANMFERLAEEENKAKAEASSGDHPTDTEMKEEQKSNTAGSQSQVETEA
Kind of assay: proximity labelling; BioID: H1975 cells stably transfected with HA-BirA*-FKBP4 (control HA-BirA*), 50 μM biotin for 24 h, streptavidin agarose, mass spectrometry.

No constants are given. Whether binding was seen depends on the method and setting. In cells and extracts the contact can be indirect. A yes stands for co-enrichment or nearness to the bait. Other partners may have been found. Where a sequence is shown, tags or fusion partners need not be part of it.

“endogenous Hsp70 (HSPA1L) (from UniProt P34931 1-641)”: the binding entry was “binds”.
